PubChem BioAssay AID1508588 | Peter MacCallum Cancer Centre | 2020
The whole screen tested about 18,000 reagents; shown is a part drawn at random. 790 of them (4.4%) count as active. 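Calls rest on a combination of fold-change classes in drug and vehicle arms, not all shown here.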 A number with no mark means an inactive call.

Test: 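Which gene losses make BRAF-mutant melanoma cells more responsive to vemurafenib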 (primary screen)
Cell system: human WM266.4 melanoma cells (BRAF V600 mutant)
Reagents: siRNA pool against human genes, 40 nM
Duration: 96 h from transfection to read-out
Challenge: vemurafenib 300 nM (about IC25), added 48 h after transfection, for 48 h; comparison arm got DMSO vehicle only
Read-out: 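Ratios to non-targeting siRNA for cell gain, counted as DAPI nuclei after minus before drug and averaged over two replicates, and for absorbance-read medium lactate per cell; both binned into fold-change classes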
Reading the numbers: cell gain with vemurafenib: higher = more cell gain than with non-targeting siRNA; lactate per cell with vemurafenib: higher = more lactate made per cell
Rule for the call: 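a knock-down counts as enhancing when its fold-change classes with vehicle and with vemurafenib, taken together, show a stronger drug effect on cell gain or lactate per cell; exact class pairs not stated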
Calls: active = enhances vemurafenib effect; inactive = no enhancement seen

Gene	cell gain with vemurafenib	lactate per cell with vemurafenib
STRN	0.96	0.78
CENPE	0.19	1.6
EEF1B2	0.97	0.64
HNRNPDL	0.89	0.73
B9D2	0.87	1.44
RBKS	0.61	0.44
PLAC9	0.15	0.8
FIZ1	1.01	1.33
SLC7A13	0.64	1.65
SMTN	0.05	1.85
PARP9	0.65	1.16
CNMD	0.32	1.08
COPB2	-0.11	1.03
TXNDC8	0.8	0.48
WDR77	0.59	1.38
MRPS15	0.56	1.37
ZBTB43	0.54	1.43
RC3H1	1.06	0.87
SLC46A3	0.83	1.1
INPP4A	0.84	0.46
GGT6	0.19	1.41
ISCA1P1	0.74	1.82
RSAD2	0.49	0.34
HECTD4	0.81	1.12
RAG1	0.41	1.24
DEFB119	0.52	0.54
EFNB3	0.28	1.75
CNGB1	0.86	0.8
ZNF776	0.45	1.04
KDM2A	0.31	1.17
ZMYM2	0.79	1.03
ABCB10	0.38	1.2
MAGED4B	0.93	0.91
FAM217A	0.66	0.88

5 neighbouring records already listed:
Gene	cell gain with vemurafenib	lactate per cell with vemurafenib
HNRNPDL	0.89	0.73
B9D2	0.87	1.44
RBKS	0.61	0.44
PLAC9	0.15	0.8
FIZ1	1.01	1.33

The results go on.
Gene	cell gain with vemurafenib	lactate per cell with vemurafenib
PDLIM7	0.58	0.75
CLCN5	1.04	1.36
ZBTB25	0.65	1.29
DRC3	0.67 (active)	0.63
GPN2	0.77	0.74
FABP2	1.01	0.73
TAC4	1.02	1.48
PLCL1	0.65	1.08
ODAD1	0.55	1.26
CALML5	0.64	1.11
SIX6	0.39	1.23
THYN1	-0.1	0.7
PPP1R15A	1.26	0.48
GPAA1	0.65	0.54
PRNP	0.95	0.96
RSBN1L	0.81	0.98
ID4	0.49	0.84
AP2M1	-0.05	2.8
BRSK2	0.7	0.94
HES2	0.7	1.93
LINC01559	1.09	0.38
CIMIP5	0.43	1.57
CLN5	0.42	1.16
